Laboratory results: patent US7361665B2, “Inhibitors of c-Jun N-terminal kinases (JNK) and other protein kinases” (Vertex Pharmaceuticals Incorporated, priority 2002, dated 2008)
Some of these results come from one statement about several compounds together.

Molecular target: T1, Aurora-2 (Homo sapiens, UniProt O14965)
T1 sequence (O14965 1-403): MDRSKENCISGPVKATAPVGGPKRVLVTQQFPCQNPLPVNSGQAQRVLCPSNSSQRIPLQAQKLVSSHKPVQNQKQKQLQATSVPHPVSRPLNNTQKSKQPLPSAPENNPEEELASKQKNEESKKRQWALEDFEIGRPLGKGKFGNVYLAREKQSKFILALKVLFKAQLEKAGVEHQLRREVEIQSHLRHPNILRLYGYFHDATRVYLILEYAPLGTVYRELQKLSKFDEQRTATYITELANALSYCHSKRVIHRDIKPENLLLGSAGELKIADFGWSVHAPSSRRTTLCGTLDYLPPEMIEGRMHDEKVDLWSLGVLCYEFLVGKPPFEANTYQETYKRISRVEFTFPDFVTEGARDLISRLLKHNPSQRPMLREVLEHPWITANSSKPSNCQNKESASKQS
Assay: Inhibition of Aurora assay (coupled enzyme assay)
Type: biochemical

In the case of `COc1cccc(Nc2nccc(-c3cnc(Cc4c(Cl)cccc4Cl)[nH]3)n2)c1` [IIa-25], the Ki is reported as < 100 nM.
In the case of `COc1cc(Nc2nccc(-c3cnc(Cc4c(Cl)cccc4Cl)[nH]3)n2)cc(OC)c1` [IIa-26], the Ki is reported as < 100 nM.
With `COC(=O)c1cccc(Nc2nccc(-c3cnc(Cc4c(Cl)cccc4Cl)[nH]3)n2)c1` [IIa-31] the Ki was < 100 nM.
`Cc1nc(-c2cccs2)sc1-c1ccnc(Nc2ccc(S(N)(=O)=O)cc2)n1` [IIc-22] was tested, and the Ki was > 1000 nM.
With `Cc1nc(-c2cccs2)sc1-c1ccnc(Nc2ccc(Cl)cc2)n1` [IIc-24] the Ki was > 1000 nM.
In the case of `Cc1nc(-c2cccs2)sc1-c1ccnc(Nc2ccc([N+](=O)[O-])cc2)n1` [IIc-25], the Ki is reported as > 1000 nM.
With `Cc1nc(-c2ccccc2)sc1-c1ccnc(Nc2ccc(F)cc2)n1` [IIc-28] the Ki was > 1000 nM.
For `Cc1nc(-c2ccccc2)sc1-c1ccnc(Nc2ccc(Cl)cc2)n1` [IIc-29], the Ki was > 1000 nM.
With `Cc1nc(-c2ccccc2)sc1-c1ccnc(Nc2ccc([N+](=O)[O-])cc2)n1` [IIc-31] the Ki was > 1000 nM.
For `Cc1nc(-c2ccccc2)sc1-c1ccnc(Nc2cccc(OCc3ccccc3)c2)n1` [IIc-32], the Ki was > 1000 nM.
In the case of `Cc1nc(-c2ccc(Cl)cc2)sc1-c1ccnc(Nc2ccccc2)n1` [IIc-33], the Ki is reported as > 1000 nM.
With `Cc1nc(-c2ccc(Cl)cc2)sc1-c1ccnc(Nc2ccc(F)cc2)n1` [IIc-34] the Ki was > 1000 nM.
`Cc1nc(-c2ccc(Cl)cc2)sc1-c1ccnc(Nc2ccc(Cl)cc2)n1` [IIc-35] was tested, and the Ki was > 1000 nM.
With `Cc1nc(-c2ccc(Cl)cc2)sc1-c1ccnc(Nc2cccc(Cl)c2)n1` [IIc-36] the Ki was > 1000 nM.
In the case of `CCOC(=O)c1nc(-c2ccccc2)sc1-c1ccnc(Nc2ccc([N+](=O)[O-])cc2)n1` [IIc-38], the Ki is reported as > 1000 nM.
